Primary screen of a compound library

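Assay of Toxoplasma gondii numbers, read through their beta-galactosidase reporter with a colour substrate. Concentration: 50 µM. Higher reads as fewer parasites (inferred from which compounds were picked for retests). Size under these conditions: about 18,000 compounds, about 170 of them at 50% or above in at least one test.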

Each number is a percent effect as filed.
The controls that fix the scale are not given in the record; negative values are as filed.
The compounds are a random part of those screened.

| # | compound | percent effect |
|---|---|---|
| 1 | `CNc1nc(NCCS(C)(=O)=O)ncc1Br` | -4.265 |
| 2 | `Cn1nccc1CCC(=O)N1C[C@H](C2CC2)[C@@H](N)C1` | -25.71 |
| 3 | `CCOC(=O)c1cnc2c(C#N)c(C)nn2c1N` | -24.97 |
| 4 | `CC(C)CC(C)S(N)(=O)=O` (stereo not shown) | 16.9 |
| 5 | `Cc1cc(C(=O)NCCc2ccncc2)nc(N)n1` | -16.76 |
| 6 | `CCn1ccnc1C1CCN(C(=O)CNC)CC1` | -3.135 |
| 7 | `c1cncc(C2NCC23CCC3)c1` (stereo not shown) | 13.88 |
| 8 | `CCn1ccnc1CNCC1CCN(CC(C)O)CC1` (stereo not shown) | -5.674 |
| 9 | `CCCC(N)C(=O)N(C)Cc1cccc(N(C)C)c1` (stereo not shown) | 89.59 |
| 10 | `COCCCNS(=O)(=O)c1cccc2cc(C)cnc12` | -22.97 |
| 11 | `COC(=O)c1cncc(N)n1` | -6.655 |
| 12 | `CCC1=NOC(CNC(=O)c2cc(=O)c(OC)c[nH]2)C1` (stereo not shown) | -5.999 |
| 13 | `NCc1ccc(CN2CCC(O)C2)cc1` (stereo not shown) | -14.32 |
| 14 | `CCN(C1CCN(c2cncc(Cl)n2)CC1)S(C)(=O)=O` | 2.483 |
| 15 | `COCc1nn(Cc2cccc(C#N)c2)c(=O)o1` | 11.6 |
| 16 | `COc1ccc(C(CN)N2CCOCC2)cc1OC` (stereo not shown) | 2.323 |
| 17 | `CC(=O)c1ccc(NCc2ncc(C)o2)nc1` | 3.01 |
| 18 | `Cc1cc(CO)no1` | 29.53 |
| 19 | `Cc1cc(C(=O)NCCNC(=O)c2ccoc2)no1` | -9.286 |
| 20 | `CCn1cc(OCCOCC2CCCO2)cn1` (stereo not shown) | -6.823 |
| 21 | `O=C(NC1CCN(c2ccccn2)CC1)c1cccs1` | -1.635 |
| 22 | `CCOc1c(CNCCO)cc(Cl)cc1OC` | 0.7676 |
| 23 | `Cc1nn(C)c(C)c1C(C)NC(=O)C1CC1` (stereo not shown) | 3.741 |
| 24 | `CC(=O)N1c2ccccc2N(C)CCC1C` (stereo not shown) | -3.514 |
| 25 | `CCCOC(C)CN` (stereo not shown) | 12.42 |
| 26 | `CC(C)(CNS(N)(=O)=O)N1CCc2ccccc2C1` | 19.51 |
| 27 | `CCC(C(=O)N(C)Cc1ncnn1C)c1ccccc1` (stereo not shown) | -10 |
| 28 | `CS(=O)(=O)N1CCOc2ncccc21` | -6.281 |
| 29 | `COCCC(=O)Nc1cccnc1OC1CCN(C)C1` (stereo not shown) | 8.959 |
| 30 | `O=C(Nc1cc(F)ccc1F)c1cnccn1` | 24.12 |
| 31 | `CC(Sc1n[nH]c(-c2ccccn2)n1)C(=O)N(C)C` (stereo not shown) | 2.084 |
| 32 | `CC(=O)c1cccc(NC(=O)c2cn(C)nc2C)c1` | -1.058 |
| 33 | `COC(=O)c1sccc1NC(=O)c1ccnn1C` | -13.5 |
| 34 | `CC(C)C(NC(=O)Cn1cnnn1)c1cccs1` (stereo not shown) | 19.15 |
| 35 | `COC[C@H]1CCC[C@H]1NC(=O)CCn1cncn1` | 1.07 |
| 36 | `Cc1nc2ccc(NC(=O)C3=NNC(=O)CC3)cc2s1` | -7.782 |
| 37 | `NCC1(c2ccc(F)cc2)CCOCC1` | -7.292 |
| 38 | `N#CCCNC(=O)CN1CCC2(CC1)OCCO2` | -0.2451 |
| 39 | `CCS(=O)(=O)c1ccc(CN)cc1` | 5.234 |
| 40 | `CN(C)S(=O)(=O)c1ccc(OC(F)(F)F)cc1` | 7.173 |
| 41 | `C=C(C)COc1ccc(C(=O)NCc2ncc[nH]2)cc1` | -11.96 |
| 42 | `CN(C)c1ccc(CN)cc1F` | 4.38 |
| 43 | `N[C@H]1CCCNC1=O` | -7.466 |
| 44 | `CCCN(CCC(=O)NC(=O)NC)CC1CCCCO1` (stereo not shown) | -23.4 |
| 45 | `O=C(CCc1ncc[nH]1)Nc1nc2ccccc2[nH]1` | -10.11 |
| 46 | `Cn1ccnc1SCC(=O)Nc1cccnc1` | -23.51 |
| 47 | `O=C(Nc1nc2ccccc2[nH]1)C1CC1` | -19.84 |
| 48 | `COc1ccc(F)c(F)c1CN1CCOC(CCO)C1` (stereo not shown) | 11.15 |
| 49 | `Cc1nnc(CN2CCCC(C(=O)NCC3CC3)C2)o1` (stereo not shown) | -0.9645 |
| 50 | `COCCn1cc(CN)cn1` | -9.374 |
| 51 | `CCC1c2nccn2CCCN1C(=O)Cn1cccn1` (stereo not shown) | -19.61 |
| 52 | `COc1ccc(CN)c(OC)n1` | 17.73 |
| 53 | `Cc1nnc(NC(=O)NC2CCC(O)CC2)s1` (stereo not shown) | -4.377 |
| 54 | `CC(O)CCS(C)(=O)=O` (stereo not shown) | -7.628 |
| 55 | `CCC(CC)NCCS(=O)(=O)N(C)C` | -9.955 |
| 56 | `Cc1n[nH]cc1CNC(=O)CSCc1c(C)noc1C` | -2.233 |
| 57 | `CN1CCCN(C(=O)C2COc3ccccc3C2)CC1` (stereo not shown) | -2.59 |
| 58 | `NCCNS(=O)(=O)c1ccc(Br)c(F)c1` | 4.097 |
| 59 | `CC(C)NC(=O)CNCc1ccc(Br)o1` | 0.3067 |
| 60 | `CC(=O)Nc1nc(CS(=O)(=O)Cc2cc(C)on2)cs1` | 10.21 |
| 61 | `CCN1CCC(NC(=O)C2CCCC2)CC1` | -18.66 |
| 62 | `Cc1cccc(C(=O)N2CCN(S(N)(=O)=O)CC2)c1` | -9.32 |
| 63 | `CC(NC(=O)c1ccc(Cl)s1)c1ncon1` (stereo not shown) | 7.961 |
| 64 | `Cc1ccc2[nH]c(CO)nc2c1` | -16.18 |
| 65 | `CC(Sc1nc[nH]n1)C(=O)NCc1ccccc1` (stereo not shown) | -1.079 |
| 66 | `Cc1c[nH]c(C(=O)NC2COc3ccccc3C2)n1` (stereo not shown) | -2.802 |
| 67 | `CC(=O)NCCNCc1ccc(C#N)cc1` | -6.142 |
| 68 | `O=C(NC1CCN(C2CCOCC2)CC1)c1ccc[nH]1` | -5.224 |
| 69 | `Cc1noc(CN2CCCCC2CCNS(C)(=O)=O)n1` (stereo not shown) | 4.766 |
| 70 | `O=C(NCC(O)C1CC1)c1cccnc1C(F)(F)F` (stereo not shown) | -5.668 |

Once more, the final 8:

Result for CC(NC(=O)c1ccc(Cl)s1)c1ncon1 (stereo not shown) was 7.961%.
Result for Cc1ccc2[nH]c(CO)nc2c1 was -16.18%.
Result for CC(Sc1nc[nH]n1)C(=O)NCc1ccccc1 (stereo not shown) was -1.079%.
Result for Cc1c[nH]c(C(=O)NC2COc3ccccc3C2)n1 (stereo not shown) was -2.802%.
Result for CC(=O)NCCNCc1ccc(C#N)cc1 was -6.142%.
Result for O=C(NC1CCN(C2CCOCC2)CC1)c1ccc[nH]1 was -5.224%.
Result for Cc1noc(CN2CCCCC2CCNS(C)(=O)=O)n1 (stereo not shown) was 4.766%.
Result for O=C(NCC(O)C1CC1)c1cccnc1C(F)(F)F (stereo not shown) was -5.668%.

From ChEMBL document CHEMBL3988442, “University of Dundee, Small-Polar-MMV Screening Library” (2021).